These are yes or no findings as the source states them, for the method shown. In cells and extracts the contact can be indirect. Some binding calls cover weakened binding; strength is not graded here. Sequences can lack the tags named with a protein.
Target: TrkA receptor (tropomyosin receptor kinase A) in U2OS-TrkA/SHC-1/p75NTR PathHunter cells (UniProt P04629)
Assay: split reporter; PathHunter enzyme fragment complementation (β-gal donor on TrkA, acceptor on SHC-1) in U2OS-TrkA/SHC-1/p75NTR cells; treated with DMSO, NGF (0.3-30 ng/mL) or NGF plus ACD856 for 3 h at room temperature; luminescence

Amino acid sequences for entries named in this document (tags omitted). A change or cut given only in a name is not applied to a line headed by its entry. Chains listed by the source or under a name are the forms on record and can include a tag or linker.
TrkA receptor (tropomyosin receptor kinase A) in U2OS-TrkA/SHC-1/p75NTR PathHunter cells (P04629, form named): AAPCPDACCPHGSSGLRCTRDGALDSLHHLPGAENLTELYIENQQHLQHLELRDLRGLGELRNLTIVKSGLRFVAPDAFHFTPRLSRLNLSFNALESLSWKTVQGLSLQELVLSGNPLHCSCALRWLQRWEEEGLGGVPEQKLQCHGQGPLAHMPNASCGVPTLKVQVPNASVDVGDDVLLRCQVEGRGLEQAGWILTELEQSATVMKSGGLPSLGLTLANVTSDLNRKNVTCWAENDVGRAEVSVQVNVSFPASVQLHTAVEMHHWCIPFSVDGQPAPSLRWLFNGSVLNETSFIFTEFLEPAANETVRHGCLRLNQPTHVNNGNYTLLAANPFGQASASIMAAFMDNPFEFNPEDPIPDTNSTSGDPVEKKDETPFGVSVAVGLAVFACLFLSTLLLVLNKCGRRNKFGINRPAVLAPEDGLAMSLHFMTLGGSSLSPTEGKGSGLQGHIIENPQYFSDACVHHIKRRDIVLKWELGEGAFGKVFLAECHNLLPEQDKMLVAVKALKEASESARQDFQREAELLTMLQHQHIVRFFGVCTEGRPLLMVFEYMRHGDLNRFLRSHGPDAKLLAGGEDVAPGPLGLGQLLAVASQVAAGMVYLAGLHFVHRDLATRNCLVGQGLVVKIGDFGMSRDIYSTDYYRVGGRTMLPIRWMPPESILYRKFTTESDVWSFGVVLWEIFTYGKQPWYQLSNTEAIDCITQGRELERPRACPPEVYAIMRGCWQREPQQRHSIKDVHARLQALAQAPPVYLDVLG

B1: SHC-1 fused to the β-gal enzyme acceptor in U2OS-TrkA/SHC-1/p75NTR PathHunter cells (protein, UniProt P29353 1-583)
chain: MDLLPPKPKYNPLRNESLSSLEEGASGSTPPEELPSPSASSLGPILPPLPGDDSPTTLCSFFPRMSNLRLANPAGGRPGSKGEPGRAADDGEGIVGAAMPDSGPLPLLQDMNKLSGGGGRRTRVEGGQLGGEEWTRHGSFVNKPTRGWLHPNDKVMGPGVSYLVRYMGCVEVLQSMRALDFNTRTQVTREAISLVCEAVPGAKGATRRRKPCSRPLSSILGRSNLKFAGMPITLTVSTSSLNLMAADCKQIIANHHMQSISFASGGDPDTAEYVAYVAKDPVNQRACHILECPEGLAQDVISTIGQAFELRFKQYLRNPPKLVTPHDRMAGFDGSAWDEEEEEPPDHQYYNDFPGKEPPLGGVVDMRLREGAAPGAARPTAPNAQTPSHLGATLPVGQPVGGDPEVRKQMPPPPPCPGRELFDDPSYVNVQNLDKARQAVGGAGPPNPAINGSAPRDLFDMKPFEDALRVPPPPQSVSMAEQLRGEPWFHGKLSRREAEALLQLNGDFLVRESTTTPGQYVLTGLQSGQPKHLLLVDPEGVVRTKDHRFESVSHLISYHMDNHLPIISAGSELCLQQPVERKL
binding: binds

From paper PMC10342804, “Neuroprotective and Disease-Modifying Effects of the Triazinetrione ACD856, a Positive Allosteric Modulator of Trk-Receptors for the Treatment of Cognitive Dysfunction in Alzheimer’s Disease” (International Journal of Molecular Sciences, 2023)
